Laboratory results from PubChem BioAssay AID2685 (National Center for Advancing Translational Sciences (NCATS), 2010).
Screen size: about 320,000 compounds; about 2,100 (0.66%) were called active. This list was built around the results that the source calls inconclusive (neither active nor inactive); the mix of calls is not that of the screen. The call rests on the fitted dose curve; in most records, active means well fitted inhibition curve with a large enough effect in the signal ratio, with a control signal flat (not every such curve was filed as active); inconclusive means small, poorly fitted or top-dose-only effect, or effect the other way, or a change in a side signal; inactive means flat fitted curve, though single readings scatter; the % refers to the signal ratio. Where the call is inconclusive, the potency comes from a doubtful curve fit.

Assay: qHTS Assay for Lipid Storage Modulators in Drosophila S3 Cells
Conditions: BODIPY lipid droplet fluorescence, 18-24 h, cells fed with added oleic acid; lipid storage change, negative = inhibition: at 46.1 µM (top of the series) unless noted
Method in brief: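 Drosophila S3 cells loaded with oleic acid (400 uM, as added) and compounds at several concentrations; lipid droplets imaged by 488-nm laser-scanning cytometry, 500–530 nm intensity and object ratio to cell channel. Percent activity normalized to 20 uM Triacsin C.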
On the % scale 0 is the no-effect control and ±100 the full control effect; potency means the concentration at half of the fitted maximal effect.

SMILES	lipid storage change, negative = inhibition	Potency
CCCNC(=O)COc1ccc(-c2nn(C)c(=O)c3ccccc23)cc1	inconclusive: -26.8%	–
COc1cc(/C=C/C(=O)OCC(=O)NCc2ccco2)ccc1OC(F)F	inconclusive: 33.5%	–
O=C(NCC1COCCO1)C1CCN(S(=O)(=O)c2ccccc2)CC1 (configuration not stated)	–	inconclusive: 0.82 µM [falling, full curve, poor fit]
CCS(=O)(=O)N1Cc2ccccc2CC1C(=O)Nc1ccccc1OC (configuration not stated)	inconclusive: 10.1%	–
Cc1cc(NC(=O)CSCC(=O)Nc2ccc(C)c(C)c2)no1	inconclusive: -64.2%	–
CCOC(=O)C1CCN(C(=O)C2CCN(c3nn4c(=O)cc(C)nc4s3)CC2)CC1	inconclusive: 56.4%	–
Cc1cc(C(=O)OCC(=O)c2cccs2)ccc1[N+](=O)[O-]	inconclusive	–
O=C(NCc1ccco1)c1cnn2c(C(F)(F)F)cc(-c3cccs3)nc12	inconclusive: 7.56%	–
O=C(CCN1C(=O)C2CCCCC2C1=O)N1CCN(S(=O)(=O)c2ccccc2)CC1 (configuration not stated)	inconclusive: 5.91%	–
CN(C)C(=O)CSc1nnc(-c2cccnc2)n1-c1ccccc1	inconclusive: 11.2% [at 9.22 µM]	–
COc1ccc(CCC(=O)Nc2ccc(S(=O)(=O)Nc3ncccn3)cc2)cc1	inconclusive: 43.9%	–
Cc1c(NC(=O)COc2ncnc3c(Cl)cc(Cl)cc23)c(=O)n(-c2ccccc2)n1C	–	inconclusive: 3.26 µM [activator, full curve]
Cc1sc2nc(CN3CCCC3)nc(Cl)c2c1C	inconclusive: 44.3%	–
O=C(c1cccc(Br)c1)N1CCN(S(=O)(=O)N2CCCCCC2)CC1	inconclusive: 0.778%	–
CCOc1ccccc1N(CC(=O)NCc1ccco1)C(=O)CCC(=O)Nc1nccs1	–	active: 2.59 µM
O=C(Nc1nccc(-c2cccs2)n1)c1cccs1	inconclusive: 59.3%	–
O=C1C/C(=C/NCc2ccccc2)C(=O)N1	inconclusive: -68.6%	–
COc1ccc(Oc2ccc(N/C=C3/CCCC3=O)cc2)cc1	–	inconclusive: 1.16 µM [activator, partial curve, poor fit]
CCOc1ccc(NCc2cccn2-c2nnc(N3CCC(C(=O)NCCCN4CC(C)CC(C)C4)CC3)s2)cc1 (configuration not stated)	–	inconclusive: 7.31 µM [activator, partial curve, poor fit]
CCOc1ccc(C(=O)c2ccccc2C(=O)O)cc1OCC	inconclusive: 62.5%	–
CN(C)CC(C)(C)CNCc1cc(=O)oc2ccc3ccccc3c12	inconclusive: 16.5%	–
COc1cccc(C(=O)Nc2cccc(-c3ccc(N4CCOCC4)nn3)c2)c1	inconclusive	–
O=S(=O)(c1ccc(Oc2ccc(S(=O)(=O)N3CCOCC3)cc2)cc1)N1CCOCC1	–	inconclusive: 0.13 µM [falling, full curve, poor fit]
Cc1cc(C)n2nc(S(=O)(=O)NC3CCCCC3)nc2n1	inconclusive: 33.2%	–
O=C1c2ccccc2CN1Cc1ccccc1	inactive	–
CN1CCN(S(=O)(=O)c2cccc(C(=O)Nc3ccccc3N3CCOCC3)c2)CC1	inconclusive: 8.77%	–

Sorted by SMILES length (ascending): some entries from above
SMILES	lipid storage change, negative = inhibition	Potency
CCS(=O)(=O)N1Cc2ccccc2CC1C(=O)Nc1ccccc1OC (configuration not stated)	inconclusive: 10.1%	–
O=C(NCC1COCCO1)C1CCN(S(=O)(=O)c2ccccc2)CC1 (configuration not stated)	–	inconclusive: 0.82 µM [falling, full curve, poor fit]
CCOC(=O)C1CCN(C(=O)C2CCN(c3nn4c(=O)cc(C)nc4s3)CC2)CC1	inconclusive: 56.4%	–

(list continues)

SMILES	lipid storage change, negative = inhibition	Potency
N#CCCN(C(=O)c1ccc2c(=O)n3c(nc2c1)CCCCC3)c1ccccc1	–	inconclusive: 23.1 µM [falling, single point]
COc1ccccc1N(C)S(=O)(=O)c1ccc(C)c(C(=O)N2CCCCCC2)c1	inconclusive	–
CCS(=O)(=O)N1CCC(C(=O)Nc2cc(C)ccc2O)CC1	inconclusive: 19.9%	–
Cc1cc(C(=O)OCC(=O)Nc2cc(C)on2)c2ccccc2n1	–	inconclusive: 1.64 µM [activator, partial curve]
COC(=O)[C@]1(C)N[C@H](c2ccc(-c3ccc(F)cc3)cc2)[C@@H]2C(=O)N(C)C(=O)[C@@H]21	inconclusive: 11.8%	–
COc1ccccc1Nc1nc(N)nc(CN(C)C2CCCCC2)n1	inconclusive: 22.7%	–
COc1ccc(-c2nc3c(n2O)CCCC3=O)cc1OC	inconclusive: -9.15%	–
Cc1ccc(C2C3CSCC=C3C(C#N)=C(N)C2(C#N)C#N)cc1 (configuration not stated)	–	inconclusive: 29.1 µM [activator, single point]
C=CCC(COCc1ccccc1)NS(=O)(=O)c1ccccc1Br (configuration not stated)	inconclusive: 14.9%	–
Cc1ccc(-c2nnc(NC(=O)c3c(F)cccc3Cl)s2)cc1	inconclusive: 22.2%	–
Cc1cc(C(=O)COC(=O)Cn2c(C(F)(F)F)nc3ccccc32)c(C)n1Cc1ccco1	inconclusive: 15.3%	–
COc1ccc(S(=O)(=O)Nc2cccnc2)cc1	inconclusive: 8.11%	–
Cc1cc(C)n2cc(COc3ccccc3)nc2n1	inconclusive: 26.3%	–
O=c1ccc2cc3c([nH]c4ccc(Br)cc43)oc-2c1O	inconclusive: 41.9%	–
CCCCNC(=S)Nc1cc([N+](=O)[O-])ccc1C	inconclusive: -23.3%	–
COc1cc(C2C(C#N)=C(N)Oc3c2ccc2ccccc32)ccc1OCC(=O)Nc1cccc(C)c1 (configuration not stated)	inconclusive: -40%	–
O=C(c1ccc(NS(=O)(=O)c2ccc(F)cc2)cc1)N1CCCCCC1	inconclusive: 44.1%	–
CC1(c2ccccc2Cl)NC(=O)N(CC(=O)N2c3ccccc3NC(=O)C2(C)C)C1=O (configuration not stated)	inconclusive: 13.1%	–
COC(=O)c1ccccc1S(=O)(=O)N(Cc1cc2ccc(OC)cc2[nH]c1=O)CC1CCCO1 (configuration not stated)	–	inconclusive: 5.8 µM [activator, partial curve]
CC(C)(C)NC(=O)NC(=O)COC(=O)Cc1c(F)cccc1Cl	inconclusive: 18.3%	–
COc1ccc(OC)c(C2/C(=C(/O)c3cnn(-c4ccccc4)c3C)C(=O)C(=O)N2CCN(C)C)c1 (configuration not stated)	–	inconclusive: 0.0291 µM [activator, full curve, poor fit]
CCOc1ccc(-n2ccnc2SCC(=O)Nc2nnc(CC)s2)cc1	inconclusive: -15.2%	–
COCCNC(=O)CN(Cc1ccccc1)C(=O)CCC(=O)Nc1nccs1	inconclusive: 8.1%	–
CCC(=O)c1ccc(OCC(=O)Nc2nc(-c3cccnc3)cs2)cc1	inconclusive	–
O=C(Nc1nc2ccsc2c(=O)s1)c1ccc(Cl)cc1	inconclusive: -27.8%	–
COc1ccccc1C(=O)Nc1ccc(OCc2nnc3c4ccccc4c(C)nn23)cc1	inconclusive: 5.73%	–

SMILES	lipid storage change, negative = inhibition	Potency
COc1ccccc1CNC(=O)c1c(N)n(CCCN2CCOCC2)c2nc3ccccc3nc12	–	inconclusive: 23.1 µM [falling, single point]
O=C(c1ccc2c(=O)n3c(nc2c1)CCC3)N1CCCSC1=Nc1ccccc1	inconclusive: -23.5%	–
CC(C)Oc1ccc(C2CC(=O)N(c3cccc(C(=O)O)c3)C2=O)cc1 (configuration not stated)	–	inconclusive: 29.1 µM [falling, single point]
O=C(O)CNC(=O)c1ccc(NC(=O)/C(=C/c2cccc([N+](=O)[O-])c2)NC(=O)c2ccco2)cc1	–	inconclusive: 0.731 µM [activator, full curve, poor fit]
O=C(NCCc1csc(-c2ccc(C(F)(F)F)cc2)n1)c1cccs1	inconclusive: 23.7%	–
CCOCC(=O)Nc1cc(C(=O)NCCC(C)C)ccc1Cl	inconclusive: 38%	–
COc1ccc(-c2noc3c2-c2nc(-c4ccccc4F)sc2CC3)cc1	inconclusive: 13.8%	–
Cc1ccc(C)c(-n2c3nc(=O)n(C)c(=O)c-3cc3ccccc32)c1	–	inconclusive: 9.2 µM [activator, partial curve]
COc1cccc(CNS(=O)(=O)c2ccc(-n3cnnn3)c(C)c2)c1	–	inconclusive: 4.11 µM [falling, single point]
Cc1ccc(NS(=O)(=O)c2c(C)[nH]c(=O)[nH]c2=O)cc1F	inconclusive: 9.81%	–
S=c1[nH]nc(-c2ccco2)n1/N=C/c1cccs1	inconclusive: -19.3%	–
Cc1cc2ncn(-c3ncnc4sc5c(c34)CCCC5)c2cc1C	inactive	–
CCOc1ccc(C(C(=O)NCC2CCCO2)N(C(=O)c2snc(C(N)=O)c2N)c2ccccc2F)cc1 (configuration not stated)	inconclusive: -10.3%	–
CC1CN(S(=O)(=O)c2ccc(C(=O)Nc3nnc(-c4ccco4)o3)cc2)CC(C)O1 (configuration not stated)	inconclusive: 20.4%	–
O=C(CSC(=S)N1CCCC1)NCCc1ccccc1	inconclusive: 9.2%	–
Cc1ccccc1OCC(=O)OCC(=O)Nc1cc(S(C)(=O)=O)ccc1Cl	inconclusive: 30.7% [at 0.0737 µM]	–
CN(C)CCCN1C(=O)C(=O)/C(=C(/O)c2ccncc2)C1c1cccnc1 (configuration not stated)	inconclusive: -5.85%	–
CC(=O)Nc1ccc(NC(=O)COC(=O)Cc2c[nH]c3ccccc23)cc1	inconclusive: -17%	–
Cc1cc(C(=O)CSc2nncn2C)c(C)n1-c1ccccc1	inconclusive: 11.1%	–
CCN(CC)N=Nc1[nH]nc2nc(C)cc(C)c12	inconclusive: 15.8%	–
Cc1[nH]c(C)c(S(=O)(=O)N(C)Cc2ccccc2)c1C(=O)N1CCCC1	inconclusive: -3.35%	–
O=C(c1ccc(Cl)c(Cl)c1)N1CCC(=O)N(C(COCc2ccc(Cl)cc2)Cc2ccccc2)CC1 (configuration not stated)	–	inconclusive: 11.6 µM [activator, partial curve]
COC(=O)CNC(c1ccccc1)c1cc(Br)ccc1NS(=O)(=O)c1ccccc1 (configuration not stated)	–	inconclusive: 7.31 µM [activator, partial curve]
COc1ccccc1-c1nnc(SCC(=O)NNC(=O)c2ccccc2F)n1C	inconclusive: 7.95%	–
COC(=O)c1ccc(C(=O)OC)c(NC(=O)CS(=O)(=O)Cc2ccccc2)c1	–	inconclusive: 2.91 µM [activator, partial curve]
